Test results from patent US6894161B2, “Methods and compositions for photo-cross linking photoactive compounds to target tissue” (The University of British Columbia, priority 2001, dated 2005).
At least one structure is not confirmed: it was looked up by name or label, or the drawing left a doubt.

Tests used:
[1] = Thermolysis of pyrazoline adducts (thermal cycloelimination of nitrogen, reflux in toluene); format: physicochemical
[2] = Photochemical activation with filtered long-wavelength red light (conversion of pyrazolines to cyclopropanes); format: physicochemical; details: degassed dilute benzene solutions, filtered long-wavelength red light (Corion 600)

## COC(=O)CCC1=C(C)c2cc3[nH]c(cc4nc(cc5[nH]c(cc1n2)c(CCC(=O)OC)c5C)C(C1CCN=N1)=C4C)c(C1CCN=N1)c3C (centres unmarked) [Compound 10]
[1]
  Time required for complete thermolysis (reflux in toluene) to cyclopropanes: 47 h
[2]
  Time to complete conversion to corresponding cyclopropanes on red light irradiation: approximately 48 hours
